Experimental data published in patent US5545625A, “Preventing conversion of citrulline to argininosuccinate to limit pathological nitric oxide overproduction” (The Medical College of Wisconsin Research Foundation, Inc., priority 1994, dated 1996).
At least one compound was matched to its structure with a doubt left.

Target: T1, immunostimulant induced argininosuccinate synthetase (Rattus norvegicus, UniProt P09034)
T1 sequence (P09034 1-412): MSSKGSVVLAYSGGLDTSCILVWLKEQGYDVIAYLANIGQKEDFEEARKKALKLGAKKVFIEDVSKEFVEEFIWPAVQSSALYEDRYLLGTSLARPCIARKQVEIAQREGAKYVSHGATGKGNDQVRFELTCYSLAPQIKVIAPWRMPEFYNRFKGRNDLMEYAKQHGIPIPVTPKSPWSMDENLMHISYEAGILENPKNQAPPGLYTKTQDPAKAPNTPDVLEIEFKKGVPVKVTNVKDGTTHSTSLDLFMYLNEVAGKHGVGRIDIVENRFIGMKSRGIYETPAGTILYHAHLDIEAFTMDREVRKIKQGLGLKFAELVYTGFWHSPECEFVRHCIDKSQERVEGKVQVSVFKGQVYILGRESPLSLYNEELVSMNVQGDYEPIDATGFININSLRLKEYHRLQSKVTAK
Assay: Argininosuccinate synthetase assay in crude homogenate of immunostimulant treated rat aortic smooth muscle cells (Example VI)
Type: biochemical
Conditions: test compound 1 mM; stated in present tense
Protocol: Argininosuccinate synthetase activity was assayed based on the conversion of [^14 C]aspartate to [^14 C]argininosuccinate, as described in O'Brien, W. E., Biochemistry 18, 5353-5356, 1979, with the exception that aspartate was present at a concentration of 30 μm (0.021 μCi/nmol). Reaction mixtures also contained L-citrulline (5 mM), Tris (10 mM, pH 7.5), ATP 0.1mM), phosphoenolpyruvate (1.5 mM), pyruvate kinase (4.5 units), myokinase (4 units), and pyrophosphatase (0.2 unit) in a total volume of 0.3 ml. Reactions were allowed to proceed for 90 minutes at 37° C before termination and quantification of the [^14 C]argininosuccinate formed, using ion exchange chromatography on Dowex 1-X8 (200-400 mesh, Bio-Rad).
Immunostimulant treated rat aortic smooth muscle cells prepared as in Example I were homogenized in 10 volumes (10 ml/gm rat aortic smooth muscle cells) of 100 mM tris buffer containing 1 mM phenylmethylsulfonyl fluoride ([…]) and 1 mM dithiothreitol (to maintain enzyme in reduced form). […]
The background count to be subtracted from the above count results was obtained by omitting citrulline from the argininosuccinate synthetase assay and in three runs was determined to be 217, 237 and 252 counts per minute.

Structure (SMILES): N[C@H](CC(=O)O)C(=O)O [D-aspartate]
- inhibition of immunostimulant induced argininosuccinate synthetase: inhibition of immunostimulant induced argininosuccinate synthetase is shown
